{"source": "PubChem BioAssay AID1259254 | NCATS, 2017", "purpose": "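Gene knock-downs that lead to re-replication, shown by excess G2 DNA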 (primary screen)", "cells": "human HCT116 colorectal cancer cells", "reagent": "single siRNA against human genes", "duration": "3 days", "read-out": "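Nuclei stained with Hoechst and imaged; cell-cycle phase assigned by DNA content; G2 share scaled per plate, non-targeting siRNA 0%, GMNN siRNA 100%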", "reading the numbers": "G2 robust z-score: higher = more G2 cells, more excess DNA replication", "hit rule": "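An siRNA counts as active if its G2 robust z-score lies at least 5 MADs above the screen median; here such calls match roughly 38% of GMNN control or more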", "note": "Shown is an unselected part of about 59,000 reagents. About 1,550 of them (2.6%) count as active. 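G2 share is only a proxy for re-replication; each gene was hit by three separate siRNAs, and active genes were retested.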 Unmarked entries are inactive. Reagents against one gene are numbered here. Not all columns of the deposit are shown. Not stated in the record: the amount of reagent."}
{"Target gene": "LINC01104 (GeneID 150577)", "siRNA no.": 1, "G2 robust z-score": 0.771}
{"Target gene": "LINC01104 (GeneID 150577)", "siRNA no.": 2, "G2 robust z-score": -0.306}
{"Target gene": "LINC01104 (GeneID 150577)", "siRNA no.": 3, "G2 robust z-score": 1.3}
{"Target gene": "RNF4 (GeneID 6047)", "siRNA no.": 1, "G2 robust z-score": -0.449}
{"Target gene": "RNF4 (GeneID 6047)", "siRNA no.": 2, "G2 robust z-score": -0.29}
{"Target gene": "RNF4 (GeneID 6047)", "siRNA no.": 3, "G2 robust z-score": 3.49}
{"Target gene": "NEUROD6 (GeneID 63974)", "siRNA no.": 1, "G2 robust z-score": -1.14}
{"Target gene": "NEUROD6 (GeneID 63974)", "siRNA no.": 2, "G2 robust z-score": 2.41}
{"Target gene": "NEUROD6 (GeneID 63974)", "siRNA no.": 3, "G2 robust z-score": -0.475}
{"Target gene": "EMILIN1 (GeneID 11117)", "siRNA no.": 1, "G2 robust z-score": -0.78}
{"Target gene": "EMILIN1 (GeneID 11117)", "siRNA no.": 2, "G2 robust z-score": 3.14}
{"Target gene": "EMILIN1 (GeneID 11117)", "siRNA no.": 3, "G2 robust z-score": -0.0692}
{"Target gene": "CBX2 (GeneID 84733)", "siRNA no.": 1, "G2 robust z-score": -0.456}
{"Target gene": "CBX2 (GeneID 84733)", "siRNA no.": 2, "G2 robust z-score": -0.735}
{"Target gene": "CBX2 (GeneID 84733)", "siRNA no.": 3, "G2 robust z-score": 0.545}
{"Target gene": "MAMLD1 (GeneID 10046)", "siRNA no.": 1, "G2 robust z-score": -0.477}
{"Target gene": "MAMLD1 (GeneID 10046)", "siRNA no.": 2, "G2 robust z-score": -0.284}
{"Target gene": "MAMLD1 (GeneID 10046)", "siRNA no.": 3, "G2 robust z-score": -0.311}
{"Target gene": "MCM5 (GeneID 4174)", "siRNA no.": 1, "G2 robust z-score": -0.769}
{"Target gene": "MCM5 (GeneID 4174)", "siRNA no.": 2, "G2 robust z-score": 1.9}
{"Target gene": "MCM5 (GeneID 4174)", "siRNA no.": 3, "G2 robust z-score": 0.437}
{"Target gene": "MCRS1 (GeneID 10445)", "siRNA no.": 1, "G2 robust z-score": -0.642}
{"Target gene": "MCRS1 (GeneID 10445)", "siRNA no.": 2, "G2 robust z-score": 0.137}
{"Target gene": "MCRS1 (GeneID 10445)", "siRNA no.": 3, "G2 robust z-score": 0.44}

Part of the list above, set out differently.
MAMLD1 (GeneID 10046) #3: G2 robust z-score = -0.311
MCM5 (GeneID 4174) #1: G2 robust z-score = -0.769
